Reference: patent US20050048127A1, “Small spherical particles of low molecular weight organic molecules and methods of preparation and use thereof” (priority 2003, published 2005)
For at least one compound, name, drawing or mass did not settle the structure.

Assay: Particle morphology and size by scanning electron microscopy (SEM)
Format: physicochemical
Conditions: broad distribution, some particles larger than upper value
Method: Particle morphology for the following examples was obtained using Scanning Electron Microscopy (SEM, FEI Quanta 200, Hilsboro, Oreg.). The sample was prepared for analysis by placing a small amount on carbon double-stick tape fixed to an aluminum sample mount. The sample was then sputter-coated using a Cressington sputter coater 108 Auto for 90 seconds and 20 mA. A second SEM instrument (Amray 1000, Bedford, Mass.) was used to obtain additional images of the small spherical particles, due to its higher resolution capabilities. Particle morphology for the following examples was obtained using Scanning Electron Microscopy (FEI Quanta 200, Hilsboro, Oreg.). FIG. 4 presents SEM of micronized budesonide starting material and FIG. 5 presents SEM of the resulting budesonide small spherical particles.

Compound	particle size distribution
CCC(C)n1ncn(-c2ccc(N3CCN(c4ccc(OCC5COC(Cn6cncn6)(c6ccc(Cl)cc6Cl)O5)cc4)CC3)cc2)c1=O (centres unmarked) [itraconazole]	0.1-20 microns
CCCC1O[C@@H]2C[C@H]3[C@@H]4CCC5=CC(=O)C=C[C@]5(C)[C@H]4[C@@H](O)C[C@]3(C)[C@]2(C(=O)CO)O1 (some centres unmarked) [micronized budesonide starting material, budesonide]	5-100 microns
